The target of this assay is T1, flag-tagged CTCF (CCCTC-binding factor) (UniProt P49711).
T1 sequence: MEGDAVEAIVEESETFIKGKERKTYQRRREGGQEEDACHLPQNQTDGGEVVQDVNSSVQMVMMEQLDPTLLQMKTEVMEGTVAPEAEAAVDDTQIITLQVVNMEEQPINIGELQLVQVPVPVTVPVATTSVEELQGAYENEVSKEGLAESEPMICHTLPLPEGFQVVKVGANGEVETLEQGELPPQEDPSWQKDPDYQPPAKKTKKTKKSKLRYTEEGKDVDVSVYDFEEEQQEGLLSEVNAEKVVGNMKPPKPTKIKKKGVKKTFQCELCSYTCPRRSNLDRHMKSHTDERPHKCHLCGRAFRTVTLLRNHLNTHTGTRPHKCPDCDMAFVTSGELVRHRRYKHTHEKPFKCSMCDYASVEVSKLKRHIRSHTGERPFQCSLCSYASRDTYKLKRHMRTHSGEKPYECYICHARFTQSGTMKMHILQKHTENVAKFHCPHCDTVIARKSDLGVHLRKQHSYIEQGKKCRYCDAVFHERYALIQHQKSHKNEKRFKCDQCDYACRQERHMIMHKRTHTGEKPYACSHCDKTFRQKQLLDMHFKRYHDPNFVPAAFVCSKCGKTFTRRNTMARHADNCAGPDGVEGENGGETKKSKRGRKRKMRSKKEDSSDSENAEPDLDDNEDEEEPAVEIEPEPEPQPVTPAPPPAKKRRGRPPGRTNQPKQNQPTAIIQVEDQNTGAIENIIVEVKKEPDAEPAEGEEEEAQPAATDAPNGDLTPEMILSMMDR
The experiment in a line: co-IP; HEK293T cells transfected for 48 h with Flag-CTCF and HA-SUZ12 vectors; lysed in NP-40 buffer (170 mM NaCl, 10 mM EDTA, 50 mM Tris pH 7.4, 50 mM NaF, 0.5% NP-40); 300 ug lysate with 2 ug IgG or antibody, Protein A/G beads; anti-Flag and anti-HA antibodies; Western blot.

The chains behind the UniProt entries cited, without tags or fusion partners.
UniProt Q15022: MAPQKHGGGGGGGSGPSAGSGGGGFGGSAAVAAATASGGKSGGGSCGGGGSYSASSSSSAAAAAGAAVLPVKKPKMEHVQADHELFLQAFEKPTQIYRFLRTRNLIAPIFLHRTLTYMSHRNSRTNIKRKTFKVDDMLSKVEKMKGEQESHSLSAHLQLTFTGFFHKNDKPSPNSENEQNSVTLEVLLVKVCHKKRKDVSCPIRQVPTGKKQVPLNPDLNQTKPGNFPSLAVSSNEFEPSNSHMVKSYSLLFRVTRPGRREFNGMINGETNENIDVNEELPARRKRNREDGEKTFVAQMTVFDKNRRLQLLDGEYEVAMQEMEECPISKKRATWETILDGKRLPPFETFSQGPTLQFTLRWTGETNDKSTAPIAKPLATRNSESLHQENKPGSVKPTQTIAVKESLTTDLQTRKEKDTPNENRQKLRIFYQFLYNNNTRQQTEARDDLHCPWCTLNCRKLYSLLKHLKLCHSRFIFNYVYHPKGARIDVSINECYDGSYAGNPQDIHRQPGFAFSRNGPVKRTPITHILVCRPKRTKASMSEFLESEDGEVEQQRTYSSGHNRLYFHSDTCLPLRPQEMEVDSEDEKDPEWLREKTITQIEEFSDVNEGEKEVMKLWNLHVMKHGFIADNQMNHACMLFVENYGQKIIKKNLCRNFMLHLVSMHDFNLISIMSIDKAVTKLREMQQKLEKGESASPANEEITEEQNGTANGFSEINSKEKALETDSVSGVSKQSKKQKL

Results are given in words; binding and its absence hold for the method and conditions named. In cells and extracts the contact can be indirect. Some entries that bind do so weakly or less than the wild type. Where a sequence is shown, tags or fusion partners need not be part of it.

Regarding “HA-tagged SUZ12 (from UniProt Q15022 1-739)”, the binding result is on record as “binds”.

The values are drawn from paper PMC7431862.
